Values quoted from earlier work as cited in PMC11489206, “Transport of perfluoroalkyl substances across human induced pluripotent stem cell-derived intestinal epithelial cells in comparison with primary human intestinal epithelial cells and Caco-2 cells” (Archives of Toxicology, 2024).

Design: method as in Ayehunie et al. (2005)
Settings: ref Ayehunie et al. (2005); cited from earlier work

Row | SMILES | BCS class
1 | CCCC(=O)Nc1ccc(OCC(O)CNC(C)C)c(C(C)=O)c1 (stereo not shown) [Acebutolol, acebutolol] | 3
2 | CC(C)NCC(O)COc1ccc(CC(N)=O)cc1 (stereo not shown) [Atenolol, atenolol] | 3
3 | CCOC(=O)[C@H](CCc1ccccc1)N[C@@H](C)C(=O)N1CCC[C@H]1C(=O)O [Enalapril, enalapril] | 3
4 | CC(C)NCC(O)COc1cccc2ccccc12 (stereo not shown) [Propranolol, propranolol] | 1
